Laboratory results published in PubChem BioAssay (EPA / NIEHS).
The shares of active, inactive and inconclusive entries below differ from those in the screen. For part of these data: Potencies beside an inconclusive call are fits to weak or partial responses and may not hold up. Active and inactive are the calls of the source. Rule for the calls: active = hit-call score of the fitted dose curve at least 0.9, where 1 is the maximum; inconclusive = response in the unintended direction; inactive = score below 0.9.

Protein sequences, listed by entry. Tags and fused reporters are not part of them. Lines headed by an entry give the natural chain unless they say otherwise; changes in a name come on top.
UniProt P08219: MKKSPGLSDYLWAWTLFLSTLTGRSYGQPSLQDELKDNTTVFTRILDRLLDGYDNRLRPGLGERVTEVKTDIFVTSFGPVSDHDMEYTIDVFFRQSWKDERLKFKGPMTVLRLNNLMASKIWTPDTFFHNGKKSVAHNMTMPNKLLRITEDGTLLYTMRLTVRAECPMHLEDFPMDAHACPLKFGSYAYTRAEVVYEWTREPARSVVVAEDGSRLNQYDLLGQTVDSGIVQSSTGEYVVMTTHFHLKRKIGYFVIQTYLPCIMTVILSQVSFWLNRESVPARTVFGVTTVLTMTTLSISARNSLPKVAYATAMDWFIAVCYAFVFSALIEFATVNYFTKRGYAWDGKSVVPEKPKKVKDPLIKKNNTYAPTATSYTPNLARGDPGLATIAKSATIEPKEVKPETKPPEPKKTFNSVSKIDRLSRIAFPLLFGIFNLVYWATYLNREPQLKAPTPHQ
UniProt P30536, whole entry, looked up: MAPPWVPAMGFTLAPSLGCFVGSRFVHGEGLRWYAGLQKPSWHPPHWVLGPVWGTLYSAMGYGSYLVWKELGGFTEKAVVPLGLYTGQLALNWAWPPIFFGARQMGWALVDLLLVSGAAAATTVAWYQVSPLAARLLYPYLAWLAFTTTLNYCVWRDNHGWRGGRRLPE
UniProt P03372, whole entry, looked up: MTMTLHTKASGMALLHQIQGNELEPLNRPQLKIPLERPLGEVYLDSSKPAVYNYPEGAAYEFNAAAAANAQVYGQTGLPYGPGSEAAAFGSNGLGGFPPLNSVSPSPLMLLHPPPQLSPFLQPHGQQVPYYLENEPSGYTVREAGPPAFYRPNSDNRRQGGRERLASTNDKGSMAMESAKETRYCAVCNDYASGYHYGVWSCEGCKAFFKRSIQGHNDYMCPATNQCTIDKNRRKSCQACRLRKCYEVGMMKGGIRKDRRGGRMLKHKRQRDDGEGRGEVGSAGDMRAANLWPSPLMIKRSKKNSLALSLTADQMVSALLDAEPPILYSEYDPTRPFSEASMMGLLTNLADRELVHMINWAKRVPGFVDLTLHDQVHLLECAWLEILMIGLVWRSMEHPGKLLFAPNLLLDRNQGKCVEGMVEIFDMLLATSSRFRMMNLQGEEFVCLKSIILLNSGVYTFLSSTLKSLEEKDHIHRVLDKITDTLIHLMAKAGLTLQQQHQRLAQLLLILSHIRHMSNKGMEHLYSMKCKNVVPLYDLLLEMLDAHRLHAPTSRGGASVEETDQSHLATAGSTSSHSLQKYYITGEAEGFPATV
UniProt P10276, whole entry, looked up: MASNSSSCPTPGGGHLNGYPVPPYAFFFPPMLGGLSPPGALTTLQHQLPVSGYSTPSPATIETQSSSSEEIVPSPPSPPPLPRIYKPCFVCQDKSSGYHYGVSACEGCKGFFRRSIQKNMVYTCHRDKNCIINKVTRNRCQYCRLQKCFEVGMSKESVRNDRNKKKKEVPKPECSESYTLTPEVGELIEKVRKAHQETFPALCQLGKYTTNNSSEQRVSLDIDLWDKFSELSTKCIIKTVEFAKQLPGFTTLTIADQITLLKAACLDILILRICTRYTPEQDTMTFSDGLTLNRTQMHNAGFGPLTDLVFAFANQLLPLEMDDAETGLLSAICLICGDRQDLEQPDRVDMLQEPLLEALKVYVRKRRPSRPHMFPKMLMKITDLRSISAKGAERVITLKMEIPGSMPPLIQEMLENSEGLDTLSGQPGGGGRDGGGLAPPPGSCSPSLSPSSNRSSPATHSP
UniProt P04386, whole entry, looked up: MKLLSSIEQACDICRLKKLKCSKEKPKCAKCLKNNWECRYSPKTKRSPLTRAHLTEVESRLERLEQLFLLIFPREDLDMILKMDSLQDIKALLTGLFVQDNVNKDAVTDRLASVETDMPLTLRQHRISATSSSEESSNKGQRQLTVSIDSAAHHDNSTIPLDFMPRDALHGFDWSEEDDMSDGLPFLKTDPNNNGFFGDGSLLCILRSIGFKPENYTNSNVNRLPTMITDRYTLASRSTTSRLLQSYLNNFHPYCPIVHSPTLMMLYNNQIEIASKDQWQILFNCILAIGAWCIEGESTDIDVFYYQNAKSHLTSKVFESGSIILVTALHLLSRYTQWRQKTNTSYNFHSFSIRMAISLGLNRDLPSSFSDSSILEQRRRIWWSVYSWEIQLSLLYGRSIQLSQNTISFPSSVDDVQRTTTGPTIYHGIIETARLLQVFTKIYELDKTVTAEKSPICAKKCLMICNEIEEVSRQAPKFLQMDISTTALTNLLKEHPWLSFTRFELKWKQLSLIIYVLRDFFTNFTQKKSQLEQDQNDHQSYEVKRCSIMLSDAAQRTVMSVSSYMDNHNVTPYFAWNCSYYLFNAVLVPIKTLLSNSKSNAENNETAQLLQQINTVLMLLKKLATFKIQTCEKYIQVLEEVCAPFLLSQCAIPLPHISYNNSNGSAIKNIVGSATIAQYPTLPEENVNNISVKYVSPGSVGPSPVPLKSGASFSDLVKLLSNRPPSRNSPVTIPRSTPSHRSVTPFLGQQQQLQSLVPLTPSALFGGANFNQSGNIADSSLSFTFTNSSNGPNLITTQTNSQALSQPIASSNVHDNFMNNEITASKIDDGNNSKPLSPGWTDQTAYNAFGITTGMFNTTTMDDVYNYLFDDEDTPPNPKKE
UniProt P10827: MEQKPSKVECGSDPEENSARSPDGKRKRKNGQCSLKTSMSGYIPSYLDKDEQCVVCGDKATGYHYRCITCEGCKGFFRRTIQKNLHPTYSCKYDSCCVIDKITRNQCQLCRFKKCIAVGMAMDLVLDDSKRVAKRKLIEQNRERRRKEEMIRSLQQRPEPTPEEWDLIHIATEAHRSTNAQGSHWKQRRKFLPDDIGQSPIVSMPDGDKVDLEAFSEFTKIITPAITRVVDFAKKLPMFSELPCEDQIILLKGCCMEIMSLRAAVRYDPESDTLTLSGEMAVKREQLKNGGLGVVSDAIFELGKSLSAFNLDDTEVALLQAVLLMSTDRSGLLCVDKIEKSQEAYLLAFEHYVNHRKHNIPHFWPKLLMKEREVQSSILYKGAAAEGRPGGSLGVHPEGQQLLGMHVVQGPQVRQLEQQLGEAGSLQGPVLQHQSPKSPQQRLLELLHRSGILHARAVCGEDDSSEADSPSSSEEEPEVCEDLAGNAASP
UniProt P20813: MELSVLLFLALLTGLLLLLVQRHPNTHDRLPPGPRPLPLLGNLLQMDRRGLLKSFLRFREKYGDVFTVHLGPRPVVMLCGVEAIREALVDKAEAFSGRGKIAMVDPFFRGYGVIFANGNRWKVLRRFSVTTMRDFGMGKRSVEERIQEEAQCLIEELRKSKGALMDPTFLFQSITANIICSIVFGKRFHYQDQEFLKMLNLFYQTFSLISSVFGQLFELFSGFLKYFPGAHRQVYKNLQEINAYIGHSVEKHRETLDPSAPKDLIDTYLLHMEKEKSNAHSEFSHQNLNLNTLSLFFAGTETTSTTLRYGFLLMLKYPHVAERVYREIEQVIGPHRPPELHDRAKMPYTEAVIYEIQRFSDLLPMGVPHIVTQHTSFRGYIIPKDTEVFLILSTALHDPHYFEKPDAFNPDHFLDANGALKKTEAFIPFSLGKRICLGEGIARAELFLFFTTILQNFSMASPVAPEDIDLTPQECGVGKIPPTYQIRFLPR
UniProt P10275: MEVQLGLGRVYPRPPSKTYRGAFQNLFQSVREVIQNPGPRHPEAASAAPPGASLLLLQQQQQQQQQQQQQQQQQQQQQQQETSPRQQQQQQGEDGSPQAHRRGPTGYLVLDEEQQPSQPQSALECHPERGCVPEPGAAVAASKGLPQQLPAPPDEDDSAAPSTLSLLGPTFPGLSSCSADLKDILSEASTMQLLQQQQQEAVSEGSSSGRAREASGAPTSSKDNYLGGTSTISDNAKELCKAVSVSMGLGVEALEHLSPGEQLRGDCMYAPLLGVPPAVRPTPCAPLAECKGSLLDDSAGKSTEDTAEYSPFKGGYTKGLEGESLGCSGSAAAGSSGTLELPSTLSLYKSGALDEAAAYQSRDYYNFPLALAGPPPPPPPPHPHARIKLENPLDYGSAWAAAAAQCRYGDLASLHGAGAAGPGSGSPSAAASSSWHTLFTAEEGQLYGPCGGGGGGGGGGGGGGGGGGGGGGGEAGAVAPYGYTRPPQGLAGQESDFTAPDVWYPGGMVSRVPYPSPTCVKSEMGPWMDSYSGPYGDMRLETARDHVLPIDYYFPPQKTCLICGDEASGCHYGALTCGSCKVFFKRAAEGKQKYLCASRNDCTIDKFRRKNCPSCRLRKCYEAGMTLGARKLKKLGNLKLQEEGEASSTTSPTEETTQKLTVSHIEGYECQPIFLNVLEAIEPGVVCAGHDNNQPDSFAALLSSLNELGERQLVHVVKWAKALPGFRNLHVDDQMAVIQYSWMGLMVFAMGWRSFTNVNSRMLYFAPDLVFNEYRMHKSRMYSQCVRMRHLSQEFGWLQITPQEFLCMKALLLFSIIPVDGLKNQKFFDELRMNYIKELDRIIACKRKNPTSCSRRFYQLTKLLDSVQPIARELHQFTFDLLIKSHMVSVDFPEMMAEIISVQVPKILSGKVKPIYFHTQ
UniProt P19785, whole entry, looked up: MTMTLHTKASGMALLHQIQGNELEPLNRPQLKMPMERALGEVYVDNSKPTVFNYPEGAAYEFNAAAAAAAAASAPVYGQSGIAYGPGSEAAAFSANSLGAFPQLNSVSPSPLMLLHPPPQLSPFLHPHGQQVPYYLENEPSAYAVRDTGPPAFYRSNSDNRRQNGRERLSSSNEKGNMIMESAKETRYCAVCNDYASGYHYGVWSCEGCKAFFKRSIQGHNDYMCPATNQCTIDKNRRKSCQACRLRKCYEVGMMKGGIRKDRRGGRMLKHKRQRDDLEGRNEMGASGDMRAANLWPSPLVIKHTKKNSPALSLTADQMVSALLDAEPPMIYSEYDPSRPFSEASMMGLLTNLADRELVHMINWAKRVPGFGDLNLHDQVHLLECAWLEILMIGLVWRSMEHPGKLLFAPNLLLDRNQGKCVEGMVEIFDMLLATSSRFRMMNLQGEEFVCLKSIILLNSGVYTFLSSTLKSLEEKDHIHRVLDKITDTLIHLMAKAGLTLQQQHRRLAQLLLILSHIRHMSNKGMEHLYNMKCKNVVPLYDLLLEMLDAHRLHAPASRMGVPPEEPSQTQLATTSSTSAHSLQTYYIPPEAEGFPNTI
UniProt P31749: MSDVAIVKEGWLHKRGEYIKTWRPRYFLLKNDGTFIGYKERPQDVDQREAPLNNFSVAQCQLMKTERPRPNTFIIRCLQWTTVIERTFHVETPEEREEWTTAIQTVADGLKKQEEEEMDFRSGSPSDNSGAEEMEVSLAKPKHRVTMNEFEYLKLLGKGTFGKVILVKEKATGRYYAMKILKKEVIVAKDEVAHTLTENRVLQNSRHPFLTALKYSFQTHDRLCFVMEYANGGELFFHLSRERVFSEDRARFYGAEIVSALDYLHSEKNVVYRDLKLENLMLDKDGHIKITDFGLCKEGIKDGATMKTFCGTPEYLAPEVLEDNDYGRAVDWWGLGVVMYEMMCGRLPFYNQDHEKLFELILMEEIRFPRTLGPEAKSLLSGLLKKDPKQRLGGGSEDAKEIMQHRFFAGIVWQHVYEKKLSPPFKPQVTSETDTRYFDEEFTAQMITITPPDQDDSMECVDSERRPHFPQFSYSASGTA
UniProt Q07869: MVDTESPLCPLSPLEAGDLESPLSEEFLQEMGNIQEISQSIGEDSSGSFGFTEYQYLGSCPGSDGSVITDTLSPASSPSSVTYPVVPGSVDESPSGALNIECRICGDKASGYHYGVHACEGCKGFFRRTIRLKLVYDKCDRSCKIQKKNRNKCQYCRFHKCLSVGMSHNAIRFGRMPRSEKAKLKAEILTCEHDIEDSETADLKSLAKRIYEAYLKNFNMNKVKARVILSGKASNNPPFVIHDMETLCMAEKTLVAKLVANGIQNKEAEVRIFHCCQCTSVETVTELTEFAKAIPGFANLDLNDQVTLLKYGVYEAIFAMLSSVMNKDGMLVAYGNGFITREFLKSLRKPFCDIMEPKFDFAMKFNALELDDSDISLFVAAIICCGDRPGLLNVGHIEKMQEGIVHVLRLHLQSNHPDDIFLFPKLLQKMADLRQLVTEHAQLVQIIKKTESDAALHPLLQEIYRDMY

Assays:
[1] = biological target: bovine Gamma-Aminobutyric Acid Type A Receptor Agonist (GABAR Agonist), GABRA1 (gene 780973) (UniProt P08219); experiment: NVS_LGIC_bGABAR_Agonist: NovaScreen (NVS) Ligand-Gated Ion Channel Assay for bovine Gamma-Aminobutyric Acid Type A Receptor Agonist (GABAR Agonist) (AID 2283338)
Summary of the method: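 Radioligand binding to bovine cerebellar membranes in agonist format, read by filter-based scintillation counting after 1 h. Primary screen in duplicate at 25 uM, with actives followed in concentration series. Gain of signal versus DMSO.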

[2] = Tanguay_ZF_120hpf_SNOU_legacy: (Legacy) Oregon State University Tanguay Lab 120 Hour Post-fertilization zebrafish Assay for Snout Malformation (AID 2283637)
Summary of the method: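 Snout malformation read as a yes/no call on brightfield images of 120 hpf larvae (Tropical 5D strain). Static exposure began at 6 hpf on dechorionated embryos in 0.64% DMSO, with gain of signal analysed versus DMSO controls.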

[3] = biological target: human Peripheral-type Benzodiazepine Receptor (PBR), TSPO (gene 706) (UniProt P30536); experiment: NVS_MP_hPBR: NovaScreen (NVS) Membrane Protein Assay for human Peripheral-type Benzodiazepine Receptor (PBR) (AID 2283331);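 note: hits reduce radioligand binding relative to DMSO baseline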
Summary of the method: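 Scintillation counts of filter-bound radioligand served as read-out after 1 h chemical dosing of human colonic membrane preparations. Activity was scored as signal loss against DMSO; initial duplicates at 25 uM, confirmatory concentration series afterward.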

[4] = read-out: glucuronosyltransferase (UGT1A1), UGT1A1 (gene 54658); experiment: CLD_UGT1A1_24hr: CellzDirect (CLD) Gene Expression Assay for glucuronosyltransferase (UGT1A1) at 24 hours (AID 2283696)
Summary of the method: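 Primary human hepatocytes from two donor preparations were dosed (0.2% DMSO vehicle) and harvested at 24 h; UGT1A1 mRNA induction was quantified by chemiluminescent qNPA, fitted as gain relative to DMSO.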

[5] = biological target: Estrogen receptor (Homo sapiens) (UniProt P03372); experiment: NVS_NR_hER: NovaScreen (NVS) Nuclear Receptor Binding Assay for human Estrogen Receptor (ER) (AID 2283348)
Summary of the method: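 Scintillation signal from bound radioligand was measured 18 hours after chemical addition to cell-free MCF7 protein extracts, with DMSO as baseline. Activity was scored as signal loss; compounds ran first at 25 uM in duplicate.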

[6] = biological target: Retinoic acid receptor alpha (Homo sapiens) (UniProt P10276); experiment: NVS_NR_hRAR_Antagonist: NovaScreen (NVS) Nuclear Receptor Binding Assay for human Retinoic Acid Alpha Receptor Antagonism (RAR) (AID 2283358)
Summary of the method: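 TR-FRET, cell-free, antagonist format; 2 h incubation after dosing; DMSO = baseline; signal loss fitted; 25 uM duplicate primary, then conc. series.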

[7] = CCTE_Mundy_HCI_Cortical_NOG_NeuronCount: CCTE's Neurite Outgrowth Assay in rat cortical cells for Neuron Count, Mundy Lab (AID 2284236);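 note: neurons counted by imaging betaIII-tubulin and Hoechst stained cortical cells; cells exposed to compound for about 48 hours before fixation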
Summary of the method: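 Read-out: neuron number by high-content imaging of betaIII-tubulin (Alexa Fluor-488) and Hoechst-labelled rat primary cortical cells.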

[8] = CCTE_Simmons_CellTiterGLO_HEK293T: Viability Assessment in CCTE's Assays for Thyroperoxidase (TPO) Inhibition, Simmons Lab (AID 2283665);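 for AC50: cells exposed to compound for 24 h before readout; actives reduce ATP signal below DMSO vehicle meaning cytotoxicity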
Summary of the method: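 HEK293T, 10 000 cells/well, DMEM + 1% FBS; 8-pt titration 5 nM–87.5 uM [final], 0.5% DMSO; 24 hr, 37C, 5% CO2; CellTiter-Glo luminescence; n=3 biological replicates.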

[9] = read-out: alkyl and aryl transferase (GSTA2), GSTA2 (gene 2939); experiment: CLD_GSTA2_6hr: CellzDirect (CLD) Gene Expression Assay for alkyl and aryl transferase (GSTA2) at 6 hours (AID 2283666)
Summary of the method: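 Primary human hepatocytes from two donor preparations were dosed daily with fresh compound at multiple concentrations, 0.2% DMSO vehicle. GSTA2 mRNA was measured at 6 hours by qNPA chemiluminescence; induction fitted relative to DMSO, with cytotoxicity flagged morphologically.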

[10] = test system: turtle Androgen Receptor (AR), gene 101947425; experiment: ATG_trAR_XSP1: Attagene TRANS-FACTORIAL Multi-Species (XSP1) HepG2 Assay for turtle Androgen Receptor (AR) (AID 2283786)
Summary of the method: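 HepG2 cells transiently transfected with a turtle AR–GAL4 chimera and GAL4-UAS reporter, co-treated with 3 nM 6-alpha-fluorotestosterone for partial stimulation. Reporter mRNA is quantified at 24 h by RT-PCR and capillary electrophoresis, gain-of-signal versus DMSO.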

[11] = biological target: GAL4 Transcription Factor (Internal Marker), GAL4 (gene 855828) (UniProt P04386); experiment: ATG_GAL4_XSP1: Attagene TRANS-FACTORIAL Multi-Species (XSP1) HepG2 Assay for GAL4 Transcription Factor (Internal Marker) (AID 2283789)
Summary of the method: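 HepG2 cells transiently transfected with multiplexed GAL4-UAS reporter units were exposed for 24 h with 3 nM 6-alpha-fluorotestosterone present. Reporter mRNA was quantified by RT-PCR, FAM labelling, HpaI digestion and capillary electrophoresis; background-control readout, gain-of-signal versus DMSO.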

[12] = biological target: human Thyroid hormone Receptor alpha (TRa), THRA (gene 7067) (UniProt P10827); experiment: ATG_hTRa_XSP1: Attagene TRANS-FACTORIAL Multi-Species (XSP1) HepG2 Assay for human Thyroid hormone Receptor alpha (TRa) (AID 2283805)
Summary of the method: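 HepG2 cells transiently transfected with GAL4-UAS reporter units expressing chimeric NR-Gal4 proteins, dosed 24 hours with 3 nM 6-alpha-fluorotestosterone present. Reporter mRNA measured by RT-PCR and capillary electrophoresis; gain of signal fitted versus DMSO.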

[13] = Tanguay_ZF_120hpf_JAW_legacy: (Legacy) Oregon State University Tanguay Lab 120 Hour Post-fertilization zebrafish Assay for Jaw Malformation (AID 2283638)
Summary of the method: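 Wild-type 5D embryos, chorion removed at 4 hpf, dosed singly from 6 hpf; 28C static, sealed, foil-covered, to 120 hpf. Endpoint: jaw defect yes/no (brightfield); mortality excludes scoring.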

[14] = read-out: Cytochrome P450 2B6 (Homo sapiens) (UniProt P20813); experiment: CLD_CYP2B6_24hr: CellzDirect (CLD) Gene Expression Assay for xenobiotic metabolism (CYP2B6) at 24 hours (AID 2283686)
Summary of the method: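 Primary human hepatocytes dosed daily for two days with fresh solutions, harvested at 24 hours; mRNA induction quantified by qNPA chemiluminescence, gain of signal vs 0.2% DMSO vehicle. Cytotoxicity annotated from phase-contrast morphology.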

[15] = biological target: Ratio of Nucleoli Translocation and Cytoplasm, AR (gene 367) (UniProt P10275); experiment: UPITT_HCI_U2OS_AR_TIF2_Nucleoli_Cytoplasm_Ratio_Agonist: University of Pittsburgh U2OS Androgen Receptor-Transcriptional Intermediary Factor 2 (AR-TIF2) Agonism High Content Imaging Assay for Ratio of Nucleoli Translocation and Cytoplasm (AID 2284000);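 note: hits raise the red nucleolar to cytoplasm ratio above vehicle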
Summary of the method: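 Read-out first: nucleolar-to-cytoplasm ratio of red (AR-RFP) signal, quantified by high-content imaging in U2OS cells co-expressing TIF2-GFP. Activity is scored as signal increase over DMSO. Single-point screening used 20 uM final (0.2% DMSO).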

[16] = biological target: mouse Estrogen Receptor alpha (Era), Esr1 (gene 13982) (UniProt P19785); experiment: NVS_NR_mERa: NovaScreen (NVS) Nuclear Receptor Binding Assay for mouse Estrogen Receptor alpha (Era) (AID 2283378);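 note: hit means loss of bound radioligand signal relative to DMSO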
Summary of the method: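 Measurements come from scintillation counting after filtration, taken 18 hours after chemicals were added to a cell-free mouse Era preparation with radioligand. Screening was duplicate at 25 uM, with concurrent positive and negative controls and confirmatory concentration series for actives.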

[17] = biological target: human AKT serine/threonine Kinase 1 (AKT1), AKT1 (gene 207) (UniProt P31749); experiment: NVS_ENZ_hAKT1: NovaScreen (NVS) Enzymatic Assay for human AKT serine/threonine Kinase 1 (AKT1) (AID 2283138)
Summary of the method: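 Recombinant AKT1, specific substrate, cell-free; 1 h; fluorescence intensity/electrophoretic mobility shift. Duplicate single-point 25 uM, then singleton CRC max 50 uM. DMSO = negative control/baseline; signal loss = inhibition.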

[18] = CCTE_Shafer_MEA_acute_LDH: CCTE's Lactate Dehydrogenase Assay for Cytotoxicity in the Neural Acute Assay, Shafer Lab (AID 2284086);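 note: active means LDH release rises above DMSO vehicle level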
Summary of the method: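 Rat cortical neurons cultured on microelectrode arrays; baseline 40-min recording, compound added, second 40-min recording; medium then sampled for released LDH (colorimetric kit, 490 nm). DMSO = negative control.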

[19] = biological target: human Peroxisome Proliferator-activated Receptor alpha (PPARa), PPARA (gene 5465) (UniProt Q07869); experiment: NVS_NR_hPPARa: NovaScreen (NVS) Nuclear Receptor Binding Assay for human Peroxisome Proliferator-activated Receptor alpha (PPARa) (AID 2283359);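 note: activity means loss of TR-FRET signal versus DMSO baseline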
Summary of the method: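 Chemicals were first screened in duplicate at 25 uM, and active ones were retested across concentration series. Binding was monitored by TR-FRET one hour after dosing, with decreased signal against DMSO counted as activity.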

Compound: CCOC1Oc2ccc(OS(C)(=O)=O)cc2C1(C)C (configuration not stated)
- AC50 [1]: inconclusive: 0.283 µM
- outcome [2]: inactive

Compound: CNC(=O)ON=C(C)SC
- outcome [3]: inactive
- outcome [4]: inactive

Compound: Cc1nc(N(C)C)nc(OC(=O)N(C)C)c1C
- AC50 [5]: inconclusive: 15.9 µM
- AC50 [6]: inconclusive: 25 µM

Compound: CCOP(=S)(OCC)SCCSCC
- AC50 [7]: inconclusive: 0.000938 µM

Compound: CCOP(=S)(OCC)O/N=C(\C#N)c1ccccc1
- AC50 [8]: inconclusive: 2.15 µM

Compound: C#CC(C)(C)NC(=O)c1cc(Cl)cc(Cl)c1
- AC50 [2]: inconclusive: 104 µM
- AC50 [9]: inconclusive: 20 µM
- outcome [10]: inactive
- AC50 [11]: inconclusive: 100 µM
- AC50 [12]: inconclusive: 3.48 µM

Compound: COC(=O)N(C(=O)N1CO[C@@]2(C(=O)OC)Cc3cc(Cl)ccc3C2=N1)c1ccc(OC(F)(F)F)cc1
- outcome [9]: inactive
- AC50 [7]: inconclusive: 0.00107 µM

Compound: CN1COCN(Cc2cnc(Cl)s2)C1=N[N+](=O)[O-]
- outcome [9]: inactive
- AC50 [7]: inconclusive: 0.0608 µM

Compound: O=C(O)c1nc(Cl)ccc1Cl
- outcome [13]: inactive
- AC50 [8]: inconclusive: 53.8 µM
- AC50 [14]: inconclusive: 0.00199 µM
- AC50 [4]: inconclusive: 20 µM

Compound: CCOc1cc(C(C)(C)C)ccc1C1COC(c2c(F)cccc2F)=N1 (configuration not stated)
- outcome [13]: inactive
- AC50 [15]: inconclusive: 50 µM

Compound: O=C(Nc1ccccc1)Nc1ccnc(Cl)c1
- AC50 [2]: inconclusive: 178 µM

Compound: NNC(=S)NN
- outcome [5]: inactive
- AC50 [16]: active: 0.0993 µM

Compound: CCCCOC(=O)c1ccccc1C(=O)O
- outcome [17]: inactive
- AC50 [1]: inconclusive: 25 µM
- AC50 [14]: inconclusive: 0.159 µM
- AC50 [4]: inconclusive: 20 µM

Compound: CCN(CC)C(=O)Cl
- AC50 [3]: inconclusive: 0.174 µM

Compound: O=C(O)c1cc(Oc2ccc(C(F)(F)F)cc2Cl)ccc1[N+](=O)[O-]
- outcome [18]: inactive

Compound: O=C=Nc1ccccc1
- outcome [8]: inactive

Compound: Clc1ccc(C(c2ccc(Cl)cc2)C(Cl)(Cl)Cl)cc1
- outcome [13]: inactive
- AC50 [10]: inconclusive: 45 µM
- AC50 [11]: inconclusive: 64.6 µM
- AC50 [12]: inconclusive: 1.34 µM

Compound: ClC1=C(Cl)[C@]2(Cl)[C@@H]3[C@H]4C[C@H]([C@@H]5O[C@H]45)[C@@H]3[C@@]1(Cl)C2(Cl)Cl
- outcome [16]: inactive
- AC50 [18]: inconclusive: 20 µM

Compound: CCCCN(CCCC)N=O
- AC50 [3]: inconclusive: 25 µM
- outcome [19]: inactive

Compound: CCCCCCCCCCCCCCCC[N+](C)(C)C
- AC50 [19]: active: 19.9 µM
